Data set [1] in a line: Hydrogenation of 1,3-cyclohexadiene by PdCl2 in ionic liquid under biphasic conditions. To be noted: for Palladium residues in the organic phase / product: inductively coupled plasma (ICP) analysis.
Where [2] appears, read: PdCl2 dissolved in the ionic liquid, biphasic.

The compound `CCCC[n+]1ccn(C)c1.F[B-](F)(F)F` [[C4mim][BF4], 1-methyl-3-butylimidazolium tetrafluoroborate, reference compound] showed a Biphenyl yield (palladium complex 0.03 mmol, 110° C., 12 hours, first run) of 100%.

Take “[1-propylnitrile-3-methylimidazolium]BF4 [[C3CNmim][BF4]]”: for the setting “after six runs of catalysis”, the “Biphenyl yield on repeated runs of catalysis” value is “above 90%”. Also, in data set [1] (setting [2]), the “Overall conversion of 1,3-cyclohexadiene” value was 90%, the Selectivity to cyclohexene is listed as 97% and the Turnover frequency amounted to 247 molmol^−1h^−1. The same compound showed a Cyclohexene yield in data set [1] (PdCl2 ~5 mg in 1 ml ionic liquid, H2 45 atm, 100° C., 4 h) of 90%. Moreover, in data set [1], the “Palladium residues in the organic phase / product” value is given as “No palladium residues in the organic phase are detected”. Further, in data set [1] (listed as 3c), the “Palladium residues in the organic phase / product” value is on record as “no palladium is detected”.

The values above are taken from patent publication US8101777B2, “Ionic liquids based on imidazolium salts incorporating a nitrile functionality” (Ecole Polytechnique Federale de Lausanne, priority 2003, dated 2012).
